Assay results reported in publication PMC11705641.
Results are given in words; binding and its absence hold for the method and conditions named. In cells and extracts the contact can be indirect.

Chains of the proteins cited; added tags and fusions are not shown. Lines headed by an entry give the natural chain unless they say otherwise; changes in a name come on top. A line that says so, or that is headed by a name, gives the form on record, which may keep a tag or linker. Residues count along the entry.
UniProt Q96AY3, residues 27-582: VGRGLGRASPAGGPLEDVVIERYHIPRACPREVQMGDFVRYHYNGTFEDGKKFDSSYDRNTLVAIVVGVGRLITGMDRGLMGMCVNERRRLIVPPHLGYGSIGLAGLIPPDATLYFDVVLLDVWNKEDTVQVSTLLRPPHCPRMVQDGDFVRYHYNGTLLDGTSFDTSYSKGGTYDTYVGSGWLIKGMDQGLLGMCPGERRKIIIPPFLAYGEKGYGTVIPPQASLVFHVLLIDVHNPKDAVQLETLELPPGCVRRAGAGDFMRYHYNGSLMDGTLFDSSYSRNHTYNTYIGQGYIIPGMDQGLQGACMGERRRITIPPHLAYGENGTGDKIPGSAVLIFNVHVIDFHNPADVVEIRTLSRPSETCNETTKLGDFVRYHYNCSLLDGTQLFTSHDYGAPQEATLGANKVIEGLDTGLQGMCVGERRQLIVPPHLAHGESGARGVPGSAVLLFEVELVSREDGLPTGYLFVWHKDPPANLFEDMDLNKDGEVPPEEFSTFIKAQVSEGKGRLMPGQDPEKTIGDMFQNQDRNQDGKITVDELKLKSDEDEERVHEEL
lamin C (P02545-2, form named): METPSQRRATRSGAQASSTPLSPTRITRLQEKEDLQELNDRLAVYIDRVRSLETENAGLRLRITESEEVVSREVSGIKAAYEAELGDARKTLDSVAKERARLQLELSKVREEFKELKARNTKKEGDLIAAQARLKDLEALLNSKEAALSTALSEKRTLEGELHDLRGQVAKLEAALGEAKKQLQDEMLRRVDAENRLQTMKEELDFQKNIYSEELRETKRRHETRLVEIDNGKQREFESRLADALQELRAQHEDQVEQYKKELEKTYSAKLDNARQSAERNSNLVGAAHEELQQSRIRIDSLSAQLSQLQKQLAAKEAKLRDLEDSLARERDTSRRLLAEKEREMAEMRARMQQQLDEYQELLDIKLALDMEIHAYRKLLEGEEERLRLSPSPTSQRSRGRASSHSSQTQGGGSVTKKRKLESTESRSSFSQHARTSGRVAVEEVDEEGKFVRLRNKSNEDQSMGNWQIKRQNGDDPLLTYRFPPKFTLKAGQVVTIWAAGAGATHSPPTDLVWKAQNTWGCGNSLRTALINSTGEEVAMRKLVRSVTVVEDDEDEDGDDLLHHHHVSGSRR

Target: FK506 binding protein 10 (FKBP10), endogenous (human (endogenous in T24 and UMUC3)) (UniProt Q96AY3)
Experiment: co-IP; endogenous proteins; IP with anti-FKBP10 antibody from NP-40 cell lysate, western blot

binding: no binding
Substance: lamin C (from UniProt P02545-2 1-572)
